This is an account of results in patent US8846411B2, “Derivatives, reagents, and immunoassay for detecting levetiracetam” (Microgenics Corporation, priority 2009, dated 2014).

The data set deals with anti-levetiracetam antibody prepared with immunogen 18a. Nature of the data set: Antibody avidity by ELISA binding inhibition study with levetiracetam. To be noted: Sheep No. 5479 antibody, 405 nm. On the procedure:
The avidity of the anti-levetiracetam antibody prepared with immunogen 18a for various levetiracetam derivatives were determined by a binding inhibition study. Samples were prepared in 1 mL of PBS at pH 7.4 with 0.1% BSA. A composition having 30% Bmax titer or 50% Bmax titer was used to divide the titer value as obtained in Example 38 into approximately half the titer value. Using 30% Bmax, an antibody titer of 1:10000 was diluted to […] during the sample preparation stage. About 50 μL of levetiracetam at different concentrations or calibrator values, (0, 5, 10, 20, 40, 80 μg/ml) were applied to a plate as prepared in accordance with Example 38. About 50 μL of the diluted antibody was dispensed into the plate, and the compositions in the plate were mixed for 1 min on a horizontal plate shaker. No levetiracetam or anti-levetiracetam antibody was added to the first row of the plate, which served as a negative control. A second row with anti-levetiracetam antibody but without levetiracetam was used as the positive control. The plate was incubated for 60 min and washed three times with 250 μL of PBS at pH 7.4 with 0.05% Tween 20. About 125 μL of a diluted derivative such as 18b or 19 in PBS at pH 7.4 was added to each well of the plate. The plate was incubated for 60 min at 37° C. and washed as described above. Approximately 125 μL of ABTS substrate was added to each well of the plate and incubated for 20 min.
(In general: An ELISA detects its analyte on a solid surface through an enzyme-linked reagent.)

`CC[C@@H](C(N)=O)N1CCCC1=O` [Levetiracetam, (−)-(S)-α-ethyl-2-oxo-1-pyrrolidine acetamide] came in with an Abs. (Levetiracetam 5 μg/mL, Antigen 18b) of 0.80; an Abs. (Levetiracetam 5 μg/mL, Antigen 19) of 0.84; an Abs. (Levetiracetam 10 μg/mL, Antigen 18b) of 0.81; an Abs. (Levetiracetam 10 μg/mL, Antigen 19) of 0.78; an Abs. (Levetiracetam 20 μg/mL, Antigen 18b) of 0.75; an Abs. (Levetiracetam 20 μg/mL, Antigen 19) of 0.74. For the same compound, the Abs. reads like this: (Levetiracetam 40 μg/mL, Antigen 18b) 0.73; (Levetiracetam 40 μg/mL, Antigen 19) 0.67; (Levetiracetam 80 μg/mL, Antigen 18b) 0.72; (Levetiracetam 80 μg/mL, Antigen 19) 0.66.
